pIC50: −log10 of the molar value.
Legend:
JEV RVP [1] = assay: microbe, parasite or virus in culture; settings: Japanese encephalitis virus, Vero, 24 h
[2] = Cytotoxicity (CC50) of compounds from the reconfirmation screen; assay type: cell-based; settings: African green monkey, Vero cells; 50% cytotoxic concentration
JEV RVP [3] = assay: in vitro; settings: African green monkey, SI (selective index, CC50/IC50), Vero cells

Question: With `Clc1ccc(CSC(Cn2ccnc2)c2ccc(Cl)cc2Cl)cc1` (stereo not drawn) [Sulconazole nitrate] as the compound, how does the pIC50 (JEV RVP [1]) read?
Answer: 5.12

Question: What about the CC50 [2] of the same compound?
Answer: 18.7 µM

Question: And the selectivity ratio (JEV RVP [3])?
Answer: 2.5

Source: article PMC5640845, “Screening of FDA-Approved Drugs for Inhibitors of Japanese Encephalitis Virus Infection” (Journal of Virology, 2017)
